# Values quoted from earlier work in patent EP1373238B1, “ALKYLXANTHATES AND THEIR USE AS PESTICIDES” (priority 2001, dated 2002).
# For at least one compound, name, drawing or mass did not settle the structure.
# Tested on: lice
# Settings: S. V. Zhuravlev, 1950; cited from earlier work
structure (smiles),measurement,value
"CCCCOC(=S)SCc1cccc(F)c1 [Compound 2, m-Fluorobenzyl (n-butylxanthate)]",insecticidal activity,moderate insecticidal activity
